Reference: PMC10657439 (Cell Death and Differentiation, 2023)
Results are given in words; binding and its absence hold for the method and conditions named.

Protein sequences, listed by entry. Tags and fused reporters are not part of them. Lines headed by an entry give the natural chain unless they say otherwise; changes in a name come on top. Residues count along the entry.
UniProt P25445, residues 26-173: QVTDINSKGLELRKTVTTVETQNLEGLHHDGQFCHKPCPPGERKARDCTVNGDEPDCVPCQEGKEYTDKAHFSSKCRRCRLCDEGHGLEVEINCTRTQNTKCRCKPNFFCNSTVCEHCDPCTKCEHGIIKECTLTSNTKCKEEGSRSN
UniProt P48023: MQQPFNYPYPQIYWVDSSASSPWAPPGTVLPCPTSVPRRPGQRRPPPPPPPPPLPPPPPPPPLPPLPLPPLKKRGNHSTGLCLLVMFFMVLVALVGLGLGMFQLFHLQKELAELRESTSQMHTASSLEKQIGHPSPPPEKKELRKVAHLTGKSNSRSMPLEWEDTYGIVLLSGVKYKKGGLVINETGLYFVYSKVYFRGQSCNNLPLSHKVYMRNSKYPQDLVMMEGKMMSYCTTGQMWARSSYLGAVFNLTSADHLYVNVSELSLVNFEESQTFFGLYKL

Target: Fc-tagged Fas (recombinant extracellular domain of Fas with a C-terminal Fc) (human) (UniProt P25445)
Experiment: ELISA; Fc-tagged Fas (2 μg/ml) coated on 96-well plates; His-tagged FasL (single or tandem) in 2-fold dilutions from 50 to 0.048 nM, 1 h at 37 °C; both purified

For “FasL^EE270-271AA (from UniProt P48023) (ligand)”, the binding was “no binding”.

With “FasL^ED163-164AA (from UniProt P48023) (ligand)” the binding was “no binding”.
